In US12202805B2, “Process for preparing (5S)-{[2-(4-carboxyphenyl)ethyl] |2-(2-{|3-chloro-4'-(trifluoromethyl)biphenyl-4-yl]methoxy}phenyl)ethyl]aminol-5,6,7,8-tetrahydroquinoline-2-carboxylic acid and its crystalline forms for use as pharmaceutically active compound” (Bayer Aktiengesellschaft, priority 2021, dated 2025):
Where “and” joins values, the source holds several entries; their conditions need not be identical. Identical values can stand only once. This continues a long series; more values of the same kind are listed elsewhere.

Tested on: thromboxane A2 challenged PAH-minipig
Assay: Haemodynamics in the anesthetized thromboxane challenged minipig, intratracheal dry powder (PAP, BP)
Type: in vivo, Göttingen Minipigs
Conditions: 375 μg/kg i.t.
Protocol: Healthy Göttingen Minipigs® Ellegaard (Ellegaard, Denmark) of both sexes and having a weight of 2-6 kg were used. The animals were sedated by i.m. administration of about 25 mg/kg ketamine and about 10 mg/kg azaperone. Anaesthesia was initiated by i.v. administration of about 2 mg/kg ketamine and about 0.3 mg/kg midazolam. Maintenance of anaesthesia was by i.v. administration of about 7.5-30 mg/kg/h ketamine and about 1-4 mg/kg/h midazolam (rate of infusion 1-4 ml/kg/h) and about 150 μg/kg/h pancuronium bromide (for example Pancuronium-Actavis). After intubation, the animals were ventilated by the ventilator at a constant respiratory volume (10-12 ml/kg, 35 breaths/min; Avea®, Viasys Healthcare, USA, or Engström Carestation, GE Healthcare, Freiburg, Germany) such that an end-tidal CO2 concentration of about 5% was achieved. Ventilation was performed with room air, enriched with about 40% oxygen (normoxia). For the measurement of the haemodynamic parameters such as pulmonary arterial pressure (PAP), blood pressure (BP) and heart rate (HR), catheters were inserted into the carotid artery to measure the blood pressure, and a Swan-Ganz® catheter was introduced in a flow-directed manner via the jugular vein into the pulmonary artery. The haemodynamic signals were recorded and evaluated by means of pressure transducers (Combitransducer, B. Braun, Melsungen, Germany)/amplifiers and Ponemah® as data acquisition software.
As reference pure Lactose vehicle was applied in the beginning of each experiment.

## O=C(O)c1ccc(CCN(CCc2ccccc2OCc2ccc(-c3ccc(C(F)(F)F)cc3)cc2Cl)[C@H]2CCCc3nc(C(=O)O)ccc32)cc1 [example 2, (5S)—{[2-(4-Carboxyphenyl)ethyl][2-(2-{[3-chloro-4′-(trifluoromethyl)biphenyl-4-yl]methoxy}phenyl)-ethyl]amino}-5,6,7,8-tetrahydroquinoline-2-carboxylic acid as Monohydrate II]
Time 50 min
  BP, % changes vs. prevalues: 100.0%

## O.O=C(O)c1ccc(CCN(CCc2ccccc2OCc2ccc(-c3ccc(C(F)(F)F)cc3)cc2Cl)[C@H]2CCCc3nc(C(=O)O)ccc32)cc1.O=C(O)c1ccc(CCN(CCc2ccccc2OCc2ccc(-c3ccc(C(F)(F)F)cc3)cc2Cl)[C@H]2CCCc3nc(C(=O)O)ccc32)cc1 [example 6a, (5S)—{[2-(4-Carboxyphenyl)ethyl][2-(2-{[3-chloro-4′-(trifluoromethyl)biphenyl-4-yl]methoxy}phenyl)-ethyl]amino}-5,6,7,8-tetrahydroquinoline-2-carboxylic acid semihydrate]
Time 50 min
  BP, % changes vs. prevalues: 99.6% and 98.4% and 100.6%
  PAP, % changes vs. prevalues: 99.3% and 98.7% and 98.9%
Time −10 min
  BP (mean): 99 mmHg and 85 mmHg and 86 mmHg
  PAP(mean): 38.7 mmHg and 40.6 mmHg

## O.O.O.O=C(O)c1ccc(CCN(CCc2ccccc2OCc2ccc(-c3ccc(C(F)(F)F)cc3)cc2Cl)[C@H]2CCCc3nc(C(=O)O)ccc32)cc1.O=C(O)c1ccc(CCN(CCc2ccccc2OCc2ccc(-c3ccc(C(F)(F)F)cc3)cc2Cl)[C@H]2CCCc3nc(C(=O)O)ccc32)cc1 [example 6e, (5S)—{[2-(4-Carboxyphenyl)ethyl][2-(2-{[3-chloro-4′-(trifluoromethyl)biphenyl-4-yl]methoxy}phenyl)-ethyl]amino}-5,6,7,8-tetrahydroquinoline-2-carboxylic acid sesquihydrate]
Time 20 min, sesquihydrate
  PAP(mean): 37.4 mmHg and 39.8 mmHg
Time 30 min, sesquihydrate
  PAP(mean): 41.4 mmHg and 36.8 mmHg and 41.2 mmHg
Time 40 min, sesquihydrate
  BP (mean): 109 mmHg and 118 mmHg
  PAP(mean): 41.0 mmHg and 37.4 mmHg and 41.3 mmHg
Time 50 min, sesquihydrate
  BP (mean): 101 mmHg and 114 mmHg and 119 mmHg
  PAP(mean): 40.9 mmHg and 38.1 mmHg and 40.8 mmHg
Time 60 min
  BP (mean): 102 mmHg
Time 60 min, sesquihydrate
  BP (mean): 116 mmHg and 118 mmHg
  PAP(mean): 40.4 mmHg and 39.5 mmHg and 40.7 mmHg
Time 70 min
  BP (mean): 99 mmHg
Time 70 min, sesquihydrate
  BP (mean): 111 mmHg and 117 mmHg
  PAP(mean): 40.7 mmHg and 38.7 mmHg and 39.6 mmHg
Time 80 min, sesquihydrate
  BP (mean): 101 mmHg and 112 mmHg and 116 mmHg
  PAP(mean): 36.5 mmHg and 37.6 mmHg and 35.4 mmHg
Time 90 min, sesquihydrate
  BP (mean): 101 mmHg and 114 mmHg and 115 mmHg
  PAP(mean): 34.3 mmHg and 36.4 mmHg and 30.8 mmHg
Time 100 min, sesquihydrate
  BP (mean): 101 mmHg and 114 mmHg and 115 mmHg
  PAP(mean): 32.3 mmHg and 35.7 mmHg and 28.6 mmHg
Time 110 min, sesquihydrate
  BP (mean): 99 mmHg and 120 mmHg and 114 mmHg
  PAP(mean): 30.8 mmHg and 35.0 mmHg and 27.5 mmHg
Time 120 min
  BP (mean): 99 mmHg
Time 120 min, sesquihydrate
  BP (mean): 121 mmHg and 114 mmHg
  BP, % changes vs. prevalues: 104.6% and 96.1%
  PAP(mean): 30.3 mmHg and 29.0 mmHg and 26.6 mmHg
Time 130 min
  BP (mean): 100 mmHg
Time 130 min, sesquihydrate
  BP (mean): 122 mmHg and 114 mmHg
  BP, % changes vs. prevalues: 100.4% and 105.5% and 96.1%
  PAP(mean): 29.0 mmHg and 30.3 mmHg and 26.9 mmHg
  PAP, % changes vs. prevalues: 76.4% and 66.8%
Time 140 min, sesquihydrate
  BP (mean): 101 mmHg and 121 mmHg and 115 mmHg
  BP, % changes vs. prevalues: 101.4% and 104.6% and 96.9%
  PAP(mean): 28.0 mmHg and 28.3 mmHg and 25.1 mmHg
  PAP, % changes vs. prevalues: 67.3% and 71.4% and 62.2%
Time 150 min
  BP (mean): 99 mmHg
Time 150 min, sesquihydrate
  BP (mean): 119 mmHg and 115 mmHg
  BP, % changes vs. prevalues: 99.4% and 102.9% and 96.9%
  PAP(mean): 25.8 mmHg and 30.8 mmHg and 25.3 mmHg
  PAP, % changes vs. prevalues: 62.1% and 77.7% and 62.8%
Time 160 min
  BP (mean): 99 mmHg
Time 160 min, sesquihydrate
  BP (mean): 123 mmHg and 114 mmHg
  BP, % changes vs. prevalues: 99.4% and 106.3% and 96.1%
  PAP(mean): 25.1 mmHg and 30.8 mmHg and 23.9 mmHg
  PAP, % changes vs. prevalues: 60.4% and 77.7% and 59.3%
Time 170 min
  BP (mean): 98 mmHg
Time 170 min, sesquihydrate
  BP (mean): 116 mmHg and 113 mmHg
  BP, % changes vs. prevalues: 98.4% and 100.3% and 95.2%
  PAP(mean): 25.5 mmHg and 30.6 mmHg and 24.6 mmHg
  PAP, % changes vs. prevalues: 61.3% and 77.3% and 61.0%
Time 180 min
  BP (mean): 99 mmHg
Time 180 min, sesquihydrate
  BP (mean): 117 mmHg and 116 mmHg
  BP, % changes vs. prevalues: 99.4% and 101.1% and 97.7%
  PAP(mean): 25.0 mmHg and 30.8 mmHg and 24.2 mmHg
  PAP, % changes vs. prevalues: 60.0% and 77.6% and 60.1%
Time 190 min
  BP (mean): 97 mmHg
Time 190 min, sesquihydrate
  BP (mean): 123 mmHg and 114 mmHg
  BP, % changes vs. prevalues: 97.4% and 106.3% and 96.1%
  PAP(mean): 24.3 mmHg and 32.9 mmHg and 23.6 mmHg
  PAP, % changes vs. prevalues: 58.5% and 83.0%
Time 200 min
  BP (mean): 97 mmHg
Time 200 min, sesquihydrate
  BP (mean): 119 mmHg and 114 mmHg
  BP, % changes vs. prevalues: 97.4% and 102.9% and 96.1%
  PAP(mean): 24.0 mmHg and 31.5 mmHg and 23.6 mmHg
  PAP, % changes vs. prevalues: 57.6% and 79.4% and 58.5%
Time 210 min
  BP (mean): 97 mmHg
Time 210 min, sesquihydrate
  BP (mean): 119 mmHg and 112 mmHg
  BP, % changes vs. prevalues: 97.4% and 102.9% and 94.4%
  PAP(mean): 24.3 mmHg and 31.0 mmHg and 23.5 mmHg
  PAP, % changes vs. prevalues: 58.3% and 78.3%
Time 220 min
  BP (mean): 97 mmHg
Time 220 min, sesquihydrate
  BP (mean): 118 mmHg and 111 mmHg
  BP, % changes vs. prevalues: 97.4% and 102.0% and 93.5%
  PAP(mean): 24.2 mmHg and 31.3 mmHg and 22.9 mmHg
  PAP, % changes vs. prevalues: 58.3% and 79.0% and 56.8%
Time 230 min
  BP (mean): 96 mmHg
Time 230 min, sesquihydrate
  BP (mean): 116 mmHg and 112 mmHg
  BP, % changes vs. prevalues: 96.4% and 100.3% and 94.4%
  PAP(mean): 24.0 mmHg and 31.5 mmHg and 23.5 mmHg
  PAP, % changes vs. prevalues: 57.8% and 79.6% and 58.3%
Time 240 min
  BP (mean): 99 mmHg
Time 240 min, sesquihydrate
  BP (mean): 115 mmHg and 109 mmHg
  BP, % changes vs. prevalues: 99.4% and 91.8%
  PAP(mean): 24.5 mmHg and 29.8 mmHg and 22.6 mmHg
  PAP, % changes vs. prevalues: 58.9% and 75.3% and 56.1%
Time 250 min, sesquihydrate
  BP (mean): 97 mmHg and 111 mmHg and 110 mmHg
  BP, % changes vs. prevalues: 97.4% and 96.0% and 92.7%
  PAP(mean): 23.9 mmHg and 29.8 mmHg and 22.8 mmHg
  PAP, % changes vs. prevalues: 57.4% and 75.3% and 56.6%
Time 260 min, sesquihydrate
  BP (mean): 97 mmHg and 110 mmHg and 107 mmHg
  BP, % changes vs. prevalues: 97.4% and 95.1% and 90.2%
  PAP(mean): 23.5 mmHg and 30.3 mmHg and 22.0 mmHg
  PAP, % changes vs. prevalues: 56.4% and 76.5% and 54.6%
Time 270 min
  BP (mean): 98 mmHg
Time 270 min, sesquihydrate
  BP (mean): 109 mmHg and 108 mmHg
  BP, % changes vs. prevalues: 98.4% and 94.2% and 91.0%
  PAP(mean): 24.6 mmHg and 30.0 mmHg and 22.2 mmHg
  PAP, % changes vs. prevalues: 59.1% and 75.7% and 55.2%
Time 280 min
  BP (mean): 97 mmHg
Time 280 min, sesquihydrate
  BP (mean): 109 mmHg and 105 mmHg
  BP, % changes vs. prevalues: 97.4% and 94.2% and 88.5%
  PAP(mean): 23.9 mmHg and 29.6 mmHg and 21.9 mmHg
  PAP, % changes vs. prevalues: 57.4% and 74.6% and 54.4%
Time 290 min
  BP (mean): 94 mmHg
Time 290 min, sesquihydrate
  BP (mean): 108 mmHg and 105 mmHg
  BP, % changes vs. prevalues: 94.4% and 93.4% and 85.9%
  PAP(mean): 25.3 mmHg and 29.1 mmHg and 22.5 mmHg
  PAP, % changes vs. prevalues: 60.8% and 73.3% and 55.8%
Time 300 min
  BP (mean): 97 mmHg
Time 300 min, sesquihydrate
  BP (mean): 108 mmHg and 105 mmHg
  BP, % changes vs. prevalues: 101.4% and 90.8% and 84.3%
  PAP(mean): 25.1 mmHg and 28.5 mmHg and 21.6 mmHg
  PAP, % changes vs. prevalues: 60.3% and 72.0% and 53.7%
